Results published in patent US20030138773A1, “METHODS OF TRANSCRIPTIONALLY MODULATING GENE EXPRESSION” (priority 1989, published 2003).
For at least one compound, name, drawing or mass did not settle the structure.

Test system: mouse mammary tumor virus (MMTV) promoter
Experiment: MMTV promoter-luciferase reporter, cell clone M10 (high-throughput screen)
Assay type: cell-based
Conditions: FIG. 43
Excerpt: NIH/3T3 fibroblast cells (ATCC number CRL 1658) were used for transfection of plasmids containing the mouse mammary tumor virus (MMTV) promoter linked to firefly luciferase coding sequences (see below). Cells were propagated in Dulbecco's modified Eagle's medium (DMEM) obtained from Gibco, Grand Island, N.Y. and supplemented with 10% FCS. For high-throughput (HTP) screening, transfected NIH/3T3 clones were transferred to serum free defined medium consisting of Iscove's modified Eagle's medium (IMEM) and Ham's F12 medium (1:1) supplemented with growth factors, hormones and nutrients as described previously (43). […]
pMluci (FIG. 3) and pSV2Neo, an antibiotic resistance plasmid (34), were co-transfected into NIH/3T3 mouse fibroblast cells using the calcium phosphate precipitation method (15) with a commercially available kit (Pharmacia, Piscataway N.J.). […] Once sufficient cell numbers were obtained, clones were analyzed based on several criteria: constitutive luciferase production, induction of luciferase expression by dexamethasone (1 μM, Sigma, St. Louis, Mo.), satisfactory attachment to microtiter plates used in the high-throughput screen (see section G) and acceptable standard deviation in multiple luciferase expression assays (see below for assay protocol). […]

C[C@@H]1C[C@H]2[C@@H]3CCC4=CC(=O)C=C[C@]4(C)[C@@]3(F)[C@@H](O)C[C@]2(C)[C@@]1(O)C(=O)CO [dexamethasone]
stimulation of the MMTV promoter in cell clone M10 by steroids: stimulated
